Data as given in PubChem BioAssay AID1259283 (Sanger Institute, 2017).
Aim: 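Kinome-wide siRNA search for kinases acting with BYL719, cetuximab or trametinib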 (primary screen). Cells: HT115 colorectal cancer cells. Reagent: siRNA pool against human genes. Challenge: anchor drug given one day after siRNA: BYL719 at 1 µM, cetuximab at 5 µg/ml, trametinib at 10 nM, or DMSO vehicle alone. Measured: 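Per-drug synergy scores plus replicate-mean viability relative to non-targeting pool #2 wells, also expressed as a robust z-score based on control wells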. Scale: robust z-score, knock-down alone: higher = more viable cells after knock-down; viability, DMSO vs non-targeting control: higher = more viable cells. Rule for the call: 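a gene counts as essential when its robust z-score with knock-down alone is below -3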. Meaning of the calls: active = essential (z below -3, no drug); inactive = no change without drug.
The deposit covers 794 reagents; shown is a random part of them. Of all reagents, 14 (1.8%) got an active call. 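Calls reflect only viability loss without drug; drug synergy does not enter the call.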 No viability above 1 is reported: the scale is capped. Further read-outs or replicates are left out here. Reagent sequences are not shown. Not given: the amount of reagent, the time to read-out.

The opening 2 records, to show the layout:
MYO3A | robust z-score, knock-down alone = -1.58; viability, DMSO vs non-targeting control (fraction of control) = 0.781; call = inactive
ABL1 | robust z-score, knock-down alone = 0.789; viability, DMSO vs non-targeting control (fraction of control) = 1; call = inactive

Results, from the start:
MYO3A | robust z-score, knock-down alone = -1.58; viability, DMSO vs non-targeting control (fraction of control) = 0.781; call = inactive
ABL1 | robust z-score, knock-down alone = 0.789; viability, DMSO vs non-targeting control (fraction of control) = 1; call = inactive
PAK1 | robust z-score, knock-down alone = 0.585; viability, DMSO vs non-targeting control (fraction of control) = 0.981; call = inactive
PFKFB2 | robust z-score, knock-down alone = 0.556; viability, DMSO vs non-targeting control (fraction of control) = 0.979; call = inactive
ZAP70 | robust z-score, knock-down alone = 0.658; viability, DMSO vs non-targeting control (fraction of control) = 0.988; call = inactive
CAMK2D | robust z-score, knock-down alone = 0.789; viability, DMSO vs non-targeting control (fraction of control) = 1; call = inactive
CILK1 | robust z-score, knock-down alone = -0.0391; viability, DMSO vs non-targeting control (fraction of control) = 0.923; call = inactive
FXR1 | robust z-score, knock-down alone = 0.789; viability, DMSO vs non-targeting control (fraction of control) = 1; call = inactive
PRKAA1 | robust z-score, knock-down alone = 0.765; viability, DMSO vs non-targeting control (fraction of control) = 0.998; call = inactive
IP6K1 | robust z-score, knock-down alone = 0.789; viability, DMSO vs non-targeting control (fraction of control) = 1; call = inactive
PIK3CB | robust z-score, knock-down alone = 0.781; viability, DMSO vs non-targeting control (fraction of control) = 0.999; call = inactive
IGF2R | robust z-score, knock-down alone = 0.789; viability, DMSO vs non-targeting control (fraction of control) = 1; call = inactive
BRD3 | robust z-score, knock-down alone = 0.577; viability, DMSO vs non-targeting control (fraction of control) = 0.98; call = inactive
PKM | robust z-score, knock-down alone = 0.111; viability, DMSO vs non-targeting control (fraction of control) = 0.937; call = inactive
DGKB | robust z-score, knock-down alone = 0.032; viability, DMSO vs non-targeting control (fraction of control) = 0.93; call = inactive
PRKCA | robust z-score, knock-down alone = 0.409; viability, DMSO vs non-targeting control (fraction of control) = 0.965; call = inactive
CDKL2 | robust z-score, knock-down alone = -1.26; viability, DMSO vs non-targeting control (fraction of control) = 0.811; call = inactive
EPHA6 | robust z-score, knock-down alone = -0.235; viability, DMSO vs non-targeting control (fraction of control) = 0.905; call = inactive
GALK1 | robust z-score, knock-down alone = -3.43; viability, DMSO vs non-targeting control (fraction of control) = 0.61; call = active
